In PubChem BioAssay AID1794844 (National Center for Advancing Translational Sciences (NCATS), 2023):
In all, about 2,800 compounds went through this assay and fewer than 10 were called active. Another 7% or so got no clear call; they are omitted. Calls follow the shape of the dose curve; as a rule, active = well fitted inhibition curve with a large enough effect; inconclusive = small, poorly fitted or top-dose-only effect; inactive = no such curve, though single readings can be large or run the other way. The list shows a part of the results.

By UniProt entry, the sequences of proteins in these tests, tags left out. Where a name states a change or a piece, a line headed by the entry shows the natural chain unless it says otherwise.
UniProt C7C422: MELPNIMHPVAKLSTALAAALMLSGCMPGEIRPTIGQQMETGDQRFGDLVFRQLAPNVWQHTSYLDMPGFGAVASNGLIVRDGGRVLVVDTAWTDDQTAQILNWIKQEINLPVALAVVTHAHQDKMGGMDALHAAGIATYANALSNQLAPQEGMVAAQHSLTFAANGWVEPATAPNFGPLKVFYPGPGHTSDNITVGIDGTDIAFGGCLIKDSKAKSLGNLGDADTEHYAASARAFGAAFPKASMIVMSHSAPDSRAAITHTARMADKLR

Each compound was assayed against Metallo-beta-lactamase type 2 (Klebsiella pneumoniae) (UniProt C7C422) (assay: qHTS to identify inhibitors of the New Delhi Metallo-beta-lactamase (NDM): Nitrocefin screen against the machine-based learning selections.). Conditions: NDM-1 enzyme, nitrocefin hydrolysis, absorbance 485 nm; activity, negative = inhibition: at the top concentration.
Method in brief: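 NDM-1 (2 nM final) in 50 mM HEPES pH 7.0, 1 uM Zn2SO4, 0.01% Tween20 was preincubated with compounds for >30 min. Nitrocefin (16.7 uM final) was read at 485 nm after 15 min, and meropenem (50 uM final) at 300 nm after 30 min.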
Also: % of control where 0% means no effect.

activity, negative = inhibition, inactive:
O=C(NC[C@H]1O[C@@H]2C[C@@H](CC(=O)N3CCOCC3)O[C@@H]2[C@@H]1O)Nc1cccs1 -9.01% [at 57.5 µM]
C[C@@H](NS(=O)(=O)c1ccccc1)c1onc(-c2ccccc2)c1C(=O)O -8.34% [at 57.5 µM]
Cc1nc(C(C)C)sc1C(=O)N1CCC(=O)N(CC2CC2)C(C(C)C)C1 (centres undefined) -3.58%
CC1=C[C@@H](CNC(=O)COc2ccccc2)[C@H](C(C)C)C[C@H]1Cc1nnc(-c2cncn2C)o1 -3.34%
CN1C[C@@H]2CCCN3CCC[C@@H]([C@H]23)[C@H]1CCCC(=O)Nc1ccc2c(c1)OCCO2 5.52%
COc1cccc([S+](=O)([O-])N2CCC3(CC2)C(=NC2CCCCC2)NC(=O)N3c2cccnc2)c1 -0.117%
CC[C@H]1CN(C(=O)Nc2ccccc2)CC[C@H]1CC(=O)N(C)CC#N 4.78% [at 57.5 µM]
COCC(=O)NC[C@@H]1C=C(C)[C@H](Cc2nc3ccc(C(=O)OC)cc3[nH]2)C[C@H]1C(C)C -9.29% [at 57.5 µM]
C[C@H]1CCCN1C(=O)c1nnc(CNc2ccc(C(=O)O)cc2)n1-c1ccccc1 -1.87% [at 57.5 µM]
O=C(c1ccco1)N1C[C@@H]2C(CN(CC#Cc3ccccc3)C3CC3)[C@@H]2C1 (some centres undefined) -6.11%
O=C(O)c1cc(Br)cc(S(=O)(=O)NC2CCCCC2)c1 -5.88%
O=C1CO[C@H]2CN(c3nccc(C(F)(F)F)n3)C[C@H]2N1Cc1ccc(F)cc1 1.03% [at 57.5 µM]
Cc1cccn2cc(C(=O)N3CCC4(CCCN(CC5CCC5)C4=O)C3)nc12 (centres undefined) 1.56%
NC(=O)c1cccc(-c2cc3c(cn2)CN(Cc2ccccc2)CCN3)c1 -4.54% [at 57.5 µM]
O=S(=O)(NC[C@H]1OC[C@@H](NCc2ccccc2F)[C@@H]1O)c1ccccc1 2.65% [at 57.5 µM]
NC(=O)Cc1c[nH]c2ncc(-c3cccc(CO)c3)cc12 1.52% [at 76.7 µM]
CN1C(=O)[C@@H]2C[C@@H](O)CN2C2(CN(Cc3cccc(F)c3)C2)C1=O 8.98% [at 57.5 µM]
COCCNC(=O)[C@@H]1CCC[C@@H](NC(=O)c2cc(C)n(C)n2)CN(C)C(=O)C1 -12% [at 57.5 µM]
NC(=O)c1cccnc1N1CCC2(CC1)CC(C(=O)O)N(C(=O)C1CC1)C2 (centres undefined) 5.46%
Fc1ccc(-c2cnc([C@@H]3COCCN3Cc3cnc4ccccc4c3)[nH]2)cc1 4.55% [at 57.5 µM]
COc1ccc(S(=O)(=O)N2CCC(c3noc(-c4ccncc4)n3)C2)cc1 (centres undefined) -5.77%
Cc1[nH]c2ccc(C(=O)N3CC[C@@](C)(O)[C@@H](O)C3)cc2c1C -0.0594%
CCN(CC)Cc1cnc2c(C(=O)N(C)Cc3cc(C)cc(C)n3)cnn2c1 1.08%
CC(C)C(=O)N1CCC(N2C(=O)C3(CCCC3)C2c2ccccc2)CC1 (centres undefined) -6.25%
Cc1ccc(C(=O)NC2CCN(c3ccc(F)cc3)C2=O)s1 (centres undefined) -2.33%
C[S+](=O)([O-])Nc1cccc(Nc2cnc3ccc(-c4ccccc4)nn23)c1 -3.67% [at 57.5 µM]
Cn1cncc1C(=O)N1CC(F)(F)C[C@H]1c1nc(C2CC2)no1 -3.91%
COc1ccc(-c2noc([C@@H]3C[C@H](NCc4ccc(N(C)C)cc4)CN3C)n2)cc1 13.4% [at 57.5 µM]
CC1=C[C@@H](CNC(=O)COc2ccccc2)[C@H](C(C)C)C[C@H]1CC(=O)N1CCN(C)CC1 0.523%
O=c1[nH]nc(CNCC2(O)CCCNC2)c2ccccc12 (centres undefined) -13.4%
Cc1nnc(-c2cc(N3CCN(c4ccccn4)CC3)ccn2)n1C1CCCCC1 -1.57% [at 57.5 µM]
O=C(NCC1CN(Cc2cccnc2)CC12CN(c1ccccc1)C2)Nc1ccccc1 (centres undefined) -3.01% [at 57.5 µM]
O=C1CCC2(CCCO2)CCN1Cc1ccc(C(F)(F)F)cc1 (centres undefined) -0.424%
O=C(NC[C@H]1O[C@@H](CO)[C@@H](O)[C@H]1N1CCCC1)c1ccc(F)c(Cl)c1 -2.6% [at 57.5 µM]
Cc1nn(-c2ccc(C(C)(C)C)cc2)c(C)c1[C@@H]1C=C[C@@H](NC(=O)NCc2ccccc2)C1 0.194% [at 57.5 µM]
COC[C@]1(O)CCN(S(=O)(=O)c2cccc(C(=O)O)c2)CC1(C)C 0.612%
COc1ccccc1N1CCN(C(=O)C[C@@H]2O[C@H](CNS(=O)(=O)c3ccc(Cl)cc3)[C@@H](O)[C@H]2O)CC1 -0.156%
Cc1ccccc1-c1cnc2[nH]cc(CC(=O)Nc3ccccn3)c2c1 6.11% [at 57.5 µM]
N[C@@H]1CC[C@H](C(=O)Nc2ccc(CC(=O)N3CCCC3)cc2)C1 -0.91%
c1cncc(CNc2cc(-c3cnc4ccccc4n3)c3cc[nH]c3n2)c1 11.1%
COc1ccccc1-c1[nH]nc2ncc(C(=O)Nc3ccc4[nH]ccc4c3)nc12 16.8% [at 57.5 µM]
CCn1c(CO)nnc1C1CC(NC(=O)Cc2ccc(-n3cnnn3)cc2)C1 (centres undefined) 0.346%
OCCC1CN(CCOc2ccc(F)cc2)CCN1CC1CCCCC1 (centres undefined) 2.55%
O=C(Nc1ccccc1)O[C@@H]1CO[C@H]2[C@@H]1OC[C@@H]2n1nnnc1Sc1ccccc1 -5.27% [at 57.5 µM]
N#Cc1cccc(NC(=O)N[C@H]2CO[C@H]3[C@@H]2OC[C@@H]3Nc2nccc(C3CCCC3)n2)c1 -0.927% [at 57.5 µM]
Cc1noc([C@@H](C)NC(=O)C2CCCC2)c1C(=O)O -7.57% [at 76.7 µM]
CC(CO)NS(=O)(=O)c1cccc(C(=O)NCCc2ncnn2C)c1 (centres undefined) 1.2%
CC(C)Cc1ccc(S(=O)(=O)N2CCCC(Cn3cnc4cccnc43)C2)cc1 (centres undefined) 351%
Cc1nnc(-c2cc(N3CCN(c4ccccn4)CC3)ccn2)n1-c1ccccc1 4.93% [at 57.5 µM]
Cn1ccnc1CN1C[C@@H]2C[C@H]1C(=O)N(CC1CC1)c1ccccc1O2 1.47% [at 57.5 µM]
COCCN1C(=O)[C@@H]2C[C@@H](CN2C)Oc2ccccc21 -12.8% [at 76.7 µM]
CCN(CC)C(=O)[C@@H]1CCC[C@@H](NS(=O)(=O)c2ccccc2)CN(C)C(=O)C1 0.626% [at 57.5 µM]
Cc1cc(F)ccc1-c1[nH]nc2ncc(-c3ccsc3)nc12 0.956% [at 57.5 µM]
CC(C)NC(=O)C[C@@H]1C[C@H]2O[C@H](CNCc3ccccc3Cl)[C@@H](O)[C@H]2O1 -0.815% [at 57.5 µM]
Cc1nn(-c2ccccc2)c(C)c1S(=O)(=O)N[C@@H]1[C@@H](N)[C@H]2CCO[C@H]21 0.344%
COc1cccc(S(=O)(=O)N2C[C@@H](C)[C@](O)(C3CCC3)C2)c1 -1.1%
COc1ccc(NC(=O)N2CC[C@H]3COC(=O)N3c3cc(C)ccc3C2)cc1 -5.74% [at 57.5 µM]
O=c1c2nc(-c3cccc(O)c3)ccc2ncn1-c1ccccc1 -5.8% [at 57.5 µM]
CCOC(=O)N1CCN(C(C(=O)O)c2ccc(OC)nc2OC)CC1 (centres undefined) -25.6%
